Positions count from the first letter of the chain named. In names and notes the source's numbering stands. Results are given in words; binding and its absence hold for the method and conditions named. In cells and extracts the contact can be indirect. Some results given as binding are weak or reduced against the parent protein; the word gives no strength. For some of these results: Where a sequence is shown, tags or fusion partners need not be part of it.
B1: HIV Tat-specific factor 1 (HTATSF1), endogenous (protein, UniProt O43719 1-755)
chain: MSGTNLDGNDEFDEQLRMQELYGDGKDGDTQTDAGGEPDSLGQQPTDTPYEWDLDKKAWFPKITEDFIATYQANYGFSNDGASSSTANVEDVHARTAEEPPQEKAPEPTDARKKGEKRKAESGWFHVEEDRNTNVYVSGLPPDITVDEFIQLMSKFGIIMRDPQTEEFKVKLYKDNQGNLKGDGLCCYLKRESVELALKLLDEDEIRGYKLHVEVAKFQLKGEYDASKKKKKCKDYKKKLSMQQKQLDWRPERRAGPSRMRHERVVIIKNMFHPMDFEDDPLVLNEIREDLRVECSKFGQIRKLLLFDRHPDGVASVSFRDPEEADYCIQTLDGRWFGGRQITAQAWDGTTDYQVEETSREREERLRGWEAFLNAPEANRGLRRSDSVSASERAGPSRARHFSEHPSTSKMNAQETATGMAFEEPIDEKKFEKTEDGGEFEEGASENNAKESSPEKEAEEGCPEKESEEGCPKRGFEGSCSQKESEEGNPVRGSEEDSPKKESKKKTLKNDCEENGLAKESEDDLNKESEEEVGPTKESEEDDSEKESDEDCSEKQSEDGSEREFEENGLEKDLDEEGSEKELHENVLDKELEENDSENSEFEDDGSEKVLDEEGSEREFDEDSDEKEEEEDTYEKVFDDESDEKEDEEYADEKGLEAADKKAEEGDADEKLFEESDDKEDEDADGKEVEDADEKLFEDDDSNEKLFDEEEDSSEKLFDDSDERGTLGGFGSVEEGPLSTGSSFILSSDDDDDDI
modifications: phosphoserine at 748 (pS748, CK2-driven; detected in these cells)
B2: FLAG-tagged HTATSF1 wildtype (protein, UniProt O43719 1-755)
chain: B1 chain
B3: FLAG-tagged HTATSF1/S748D (protein, UniProt O43719 1-755)
chain: B1 chain with S748D
B4: FLAG-tagged HTATSF1/S748A (protein, UniProt O43719 1-755)
chain: B1 chain with S748A

Protein sequences, listed by entry. Tags and fused reporters are not part of them.
UniProt Q92547: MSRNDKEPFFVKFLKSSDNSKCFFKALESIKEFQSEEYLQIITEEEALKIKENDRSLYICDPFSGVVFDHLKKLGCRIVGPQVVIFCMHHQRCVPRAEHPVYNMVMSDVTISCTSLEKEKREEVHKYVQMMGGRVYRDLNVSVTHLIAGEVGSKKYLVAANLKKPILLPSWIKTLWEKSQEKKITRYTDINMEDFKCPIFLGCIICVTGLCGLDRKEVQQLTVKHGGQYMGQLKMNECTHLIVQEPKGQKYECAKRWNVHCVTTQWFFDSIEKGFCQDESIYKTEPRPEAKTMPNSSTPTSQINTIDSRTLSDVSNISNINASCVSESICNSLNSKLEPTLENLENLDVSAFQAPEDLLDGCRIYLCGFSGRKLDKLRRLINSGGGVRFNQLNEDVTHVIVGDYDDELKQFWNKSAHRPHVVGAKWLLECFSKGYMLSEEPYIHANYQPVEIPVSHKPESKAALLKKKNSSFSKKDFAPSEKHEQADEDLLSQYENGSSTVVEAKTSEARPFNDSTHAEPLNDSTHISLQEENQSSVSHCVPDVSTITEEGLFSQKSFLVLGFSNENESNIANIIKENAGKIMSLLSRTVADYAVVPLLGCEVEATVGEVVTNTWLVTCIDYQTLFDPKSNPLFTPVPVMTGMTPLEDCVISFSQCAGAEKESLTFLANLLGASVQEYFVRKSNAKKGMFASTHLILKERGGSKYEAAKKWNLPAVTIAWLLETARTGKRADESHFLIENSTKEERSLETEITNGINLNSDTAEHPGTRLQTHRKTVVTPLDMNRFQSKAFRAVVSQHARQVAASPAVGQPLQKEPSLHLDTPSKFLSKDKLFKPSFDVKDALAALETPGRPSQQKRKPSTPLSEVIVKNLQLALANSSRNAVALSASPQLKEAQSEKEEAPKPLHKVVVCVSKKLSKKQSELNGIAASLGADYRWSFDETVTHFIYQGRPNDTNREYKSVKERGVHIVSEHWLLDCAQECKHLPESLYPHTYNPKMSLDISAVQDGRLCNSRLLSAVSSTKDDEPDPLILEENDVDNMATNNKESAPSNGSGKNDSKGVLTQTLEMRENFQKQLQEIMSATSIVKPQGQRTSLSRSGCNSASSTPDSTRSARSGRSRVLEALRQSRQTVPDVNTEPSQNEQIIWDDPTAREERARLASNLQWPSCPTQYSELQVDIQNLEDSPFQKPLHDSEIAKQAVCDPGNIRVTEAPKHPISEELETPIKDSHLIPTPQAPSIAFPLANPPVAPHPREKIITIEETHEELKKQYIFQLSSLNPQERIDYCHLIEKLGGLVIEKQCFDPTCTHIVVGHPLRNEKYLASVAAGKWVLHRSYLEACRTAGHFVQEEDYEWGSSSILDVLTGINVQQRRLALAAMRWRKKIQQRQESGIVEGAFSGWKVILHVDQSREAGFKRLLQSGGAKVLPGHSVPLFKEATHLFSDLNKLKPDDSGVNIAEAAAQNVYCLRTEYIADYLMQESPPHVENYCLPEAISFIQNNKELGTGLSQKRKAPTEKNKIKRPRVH

Experiments:
[1] = molecular target: TOPBP1 (human (endogenous in MDA-MB-231, BT-549, T-47D)) (UniProt Q92547); test: co-IP; endogenous proteins; cellular extracts in NETN buffer (50 mM Tris-HCl pH 8.0, 150 mM NaCl, 0.2% NP-40, 2 mM EDTA) of MDA-MB-231, BT-549 and T-47D cells, with or without CK2 inhibitor CX-4945 (10 uM, 4 h); antibody 12 h at 4 C, protein G magnetic beads, Western blotting
[2] = molecular target: TOPBP1 (human (endogenous in MDA-MB-231, BT-549, T-47D)) (UniProt Q92547); test: co-IP; FLAG-tagged HTATSF1 wildtype or point mutants expressed in breast cancer cells, endogenous TOPBP1; cellular extracts in NETN buffer (50 mM Tris-HCl pH 8.0, 150 mM NaCl, 0.2% NP-40, 2 mM EDTA), Western blotting

| Binder | binding [1] | binding [2] |
| --- | --- | --- |
| B1 | binds | – |
| B2 | – | binds |
| B3 | – | binds |
| B4 | – | no binding |
